According to paper PMC6307745:
These are yes or no findings as the source states them, for the method shown. In cells and extracts the contact can be indirect. Some entries that bind do so weakly or less than the wild type. Each block holds one molecule with its values, some of them ahead of it.

By UniProt entry, the sequences of proteins in these tests, tags left out.
UniProt Q9JLQ0: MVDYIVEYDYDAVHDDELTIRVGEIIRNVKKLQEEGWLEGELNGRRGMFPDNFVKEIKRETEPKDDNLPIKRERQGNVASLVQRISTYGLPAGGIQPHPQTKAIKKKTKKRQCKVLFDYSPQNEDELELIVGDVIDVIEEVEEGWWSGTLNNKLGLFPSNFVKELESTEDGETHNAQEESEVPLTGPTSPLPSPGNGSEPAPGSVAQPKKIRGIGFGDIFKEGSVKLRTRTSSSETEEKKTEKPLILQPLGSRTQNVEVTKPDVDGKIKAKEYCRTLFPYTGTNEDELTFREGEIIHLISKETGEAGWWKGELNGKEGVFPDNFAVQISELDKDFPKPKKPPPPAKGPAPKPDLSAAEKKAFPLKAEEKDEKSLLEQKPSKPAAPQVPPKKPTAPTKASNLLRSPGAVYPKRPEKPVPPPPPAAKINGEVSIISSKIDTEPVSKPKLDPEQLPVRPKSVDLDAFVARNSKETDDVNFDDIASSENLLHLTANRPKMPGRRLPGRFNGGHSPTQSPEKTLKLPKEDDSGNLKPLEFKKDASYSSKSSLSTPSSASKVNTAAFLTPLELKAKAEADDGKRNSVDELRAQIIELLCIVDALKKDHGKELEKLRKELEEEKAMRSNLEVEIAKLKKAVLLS
UniProt Q03135: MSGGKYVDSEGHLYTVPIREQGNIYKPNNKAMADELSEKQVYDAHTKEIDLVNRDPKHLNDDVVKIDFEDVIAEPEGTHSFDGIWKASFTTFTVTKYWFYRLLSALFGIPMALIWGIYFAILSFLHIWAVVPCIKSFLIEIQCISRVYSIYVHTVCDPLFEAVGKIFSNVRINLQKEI

Key:
EGFP-CD2AP (mouse) [1] = molecular target: EGFP-CD2AP (mouse) (UniProt Q9JLQ0); assay: co-IP; transfected cells cross-linked with 0.5mM DSP for 30min at room temperature, solubilised in 1% octylglucoside, 1% TritonX-100, 50mM Tris pH8, 300mM NaCl, 5mM EDTA; anti-GFP immunoprecipitation; blot with anti-caveolin1
EGFP-CD2AP (mouse) [2] = molecular target: EGFP-CD2AP (mouse) (UniProt Q9JLQ0); assay: co-IP; cells co-transfected with cavin1-mCherry and an EGFP construct; lysis in 0.1% TritonX100, 10 mM Tris pH8, 150 mM NaCl, 0.5 mM EDTA; cleared at 100,000 g; GFP-Trap beads overnight at 4°C; blot with anti-cavin1

binding (EGFP-CD2AP (mouse) [1]): binds
Molecule: caveolin1 (in lysates of transfected, DSP cross-linked cells) (from UniProt Q03135 1-178)

binding (EGFP-CD2AP (mouse) [2]): binds
B1: cavin1-mCherry (protein, UniProt P85125 1-392)
chain: MEDVTLHIVERPYSGYPDASSEGPEPTPGEARATEEPSGTGSDELIKSDQVNGVLVLSLLDKIIGAVDQIQLTQAQLEERQAEMEGAVQSIQGELSKLGKAHATTSNTVSKLLEKVRKVSVNVKTVRGSLERQAGQIKKLEVNEAELLRRRNFKVMIYQDEVKLPAKLSVSKSLKESEALPEKEGDELGEGERPEEDAAAIELSSDEAVEVEEVIEESRAERIKRSGLRRVDDFKKAFSKEKMEKTKVRTRENLEKTRLKTKENLEKTRHTLEKRMNKLGTRLVPVERREKLKTSRDKLRKSFTPDHVVYARSKTAVYKVPPFTFHVKKIREGEVEVLKATEMVEVGPDDDEVGAERGAETDLLRGSSPDVHTLLEITEESDAVLVDKSDSD
